Source: publication PMC12003248, “ERCC6L2 mitigates replication stress and promotes centromere stability” (Cell Reports, 2023)
Results are given in words; binding and its absence hold for the method and conditions named. In cells and extracts the contact can be indirect. Some entries that bind do so weakly or less than the wild type. Where a sequence is shown, tags or fusion partners need not be part of it.

Amino acid sequences for entries named in this document (tags omitted).
UniProt P12004: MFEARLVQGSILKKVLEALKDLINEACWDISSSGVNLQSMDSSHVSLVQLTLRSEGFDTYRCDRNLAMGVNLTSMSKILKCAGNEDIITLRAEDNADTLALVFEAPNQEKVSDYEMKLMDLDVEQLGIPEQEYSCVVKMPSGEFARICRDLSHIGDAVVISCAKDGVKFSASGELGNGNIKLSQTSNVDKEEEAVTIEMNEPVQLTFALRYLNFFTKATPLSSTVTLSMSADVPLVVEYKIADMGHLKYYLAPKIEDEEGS

Target: T1, Strep-tagged ERCC6L2^701−1053 (human) (UniProt Q5T890)
T1 sequence: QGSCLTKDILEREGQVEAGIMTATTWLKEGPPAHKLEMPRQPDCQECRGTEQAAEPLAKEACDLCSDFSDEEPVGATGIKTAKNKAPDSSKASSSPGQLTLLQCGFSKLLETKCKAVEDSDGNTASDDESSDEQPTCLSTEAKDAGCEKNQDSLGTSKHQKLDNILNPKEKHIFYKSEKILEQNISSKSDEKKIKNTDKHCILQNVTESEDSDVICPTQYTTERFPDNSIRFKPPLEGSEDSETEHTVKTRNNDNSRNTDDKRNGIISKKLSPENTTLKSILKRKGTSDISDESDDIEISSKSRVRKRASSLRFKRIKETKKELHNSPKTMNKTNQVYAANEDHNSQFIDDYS
Assay: co-IP; extracts of cell lines expressing Strep-tagged ERCC6L2 constructs applied to StrepTactin Sepharose beads; lysis buffer 50 mM Tris pH 8, 150 mM NaCl, 1 mM DTT, 1% Triton X-, Benzonase; eluted with biotin; Western blot

- binding: binds
Substance: Endogenous PCNA (from UniProt P12004 1-261)
